According to US20160257763A1:
These are yes or no findings as the source states them, for the method shown. Some entries that bind do so weakly or less than the wild type.

Key:
[1] = biological target: Recombinant human EGFR-ED (human) (UniProt P00533); assay: SPR (ProteOn XPR36); v1323 captured on immobilized anti-human IgG, recombinant human EGFR-ED injected as analyte
[2] = biological target: EGFR expressed on the surface of A549, BxPc3 and U87 cells (UniProt P00533); assay: flow cytometry on A549, BxPc3 and U87 cells

binding [1]: binds | binding [2]: binds
B1: v1323, monovalent anti-EGFR antibody (EG2) (Fc fusion, not shown: a dimerising Fc or GST; large carriers; small tags and cut ends)
VHH: QVKLEESGGGLVQAGDSLRVSCAASGRDFSDYVMGWFRQAPGKEREFVAAISRNGLTTRYADSVKGRFTISRDNDKNMVYLQMNSLKPEDTAVYYCAVNSAGTYVSPRSREYDYWGQGTQVTVSS
